Measurements published in the supplement of paper PMC10849652.
Some of the results follow. Residues, ends and D or L forms follow the SMILES beside them. *: point of attachment. Cbz = O=C(OCc1ccccc1)*

Chains of the proteins cited; added tags and fusions are not shown. Lines headed by an entry give the natural chain unless they say otherwise; changes in a name come on top.
UniProt Q9Y303: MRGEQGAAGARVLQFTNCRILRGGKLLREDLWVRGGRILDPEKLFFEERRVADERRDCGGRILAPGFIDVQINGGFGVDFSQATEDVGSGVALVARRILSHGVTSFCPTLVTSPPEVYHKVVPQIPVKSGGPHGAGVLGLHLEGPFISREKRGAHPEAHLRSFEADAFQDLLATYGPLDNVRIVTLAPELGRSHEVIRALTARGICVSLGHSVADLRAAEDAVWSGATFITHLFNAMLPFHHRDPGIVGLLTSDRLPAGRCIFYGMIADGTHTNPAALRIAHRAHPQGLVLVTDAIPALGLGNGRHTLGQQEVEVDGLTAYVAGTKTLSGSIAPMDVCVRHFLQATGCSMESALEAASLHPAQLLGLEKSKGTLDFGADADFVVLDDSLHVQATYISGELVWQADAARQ
UniProt P04075: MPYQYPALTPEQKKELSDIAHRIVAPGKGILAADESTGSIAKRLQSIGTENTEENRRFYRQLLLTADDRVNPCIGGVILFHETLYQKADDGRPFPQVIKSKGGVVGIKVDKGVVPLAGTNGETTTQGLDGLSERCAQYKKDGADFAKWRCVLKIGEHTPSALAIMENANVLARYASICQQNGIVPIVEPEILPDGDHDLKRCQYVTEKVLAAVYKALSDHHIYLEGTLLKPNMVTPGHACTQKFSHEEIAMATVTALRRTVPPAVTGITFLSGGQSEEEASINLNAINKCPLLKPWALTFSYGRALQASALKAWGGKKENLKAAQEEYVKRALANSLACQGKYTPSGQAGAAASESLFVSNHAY
UniProt Q9BV57: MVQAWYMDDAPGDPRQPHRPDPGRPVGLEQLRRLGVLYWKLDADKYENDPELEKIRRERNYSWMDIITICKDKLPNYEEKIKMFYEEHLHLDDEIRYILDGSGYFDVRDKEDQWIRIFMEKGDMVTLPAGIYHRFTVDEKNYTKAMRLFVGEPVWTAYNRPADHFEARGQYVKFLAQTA
UniProt Q53H12: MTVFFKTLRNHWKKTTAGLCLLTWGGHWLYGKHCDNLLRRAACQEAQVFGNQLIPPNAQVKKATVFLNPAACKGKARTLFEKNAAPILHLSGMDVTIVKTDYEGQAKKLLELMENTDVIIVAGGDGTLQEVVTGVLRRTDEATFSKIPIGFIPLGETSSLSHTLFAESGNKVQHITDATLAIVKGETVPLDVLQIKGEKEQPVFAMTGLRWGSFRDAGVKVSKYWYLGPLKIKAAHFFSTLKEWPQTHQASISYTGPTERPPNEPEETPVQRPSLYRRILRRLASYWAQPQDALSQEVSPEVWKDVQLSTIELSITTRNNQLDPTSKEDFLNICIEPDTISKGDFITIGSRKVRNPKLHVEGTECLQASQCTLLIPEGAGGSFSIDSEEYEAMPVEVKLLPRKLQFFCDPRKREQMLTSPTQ
UniProt Q3SY69: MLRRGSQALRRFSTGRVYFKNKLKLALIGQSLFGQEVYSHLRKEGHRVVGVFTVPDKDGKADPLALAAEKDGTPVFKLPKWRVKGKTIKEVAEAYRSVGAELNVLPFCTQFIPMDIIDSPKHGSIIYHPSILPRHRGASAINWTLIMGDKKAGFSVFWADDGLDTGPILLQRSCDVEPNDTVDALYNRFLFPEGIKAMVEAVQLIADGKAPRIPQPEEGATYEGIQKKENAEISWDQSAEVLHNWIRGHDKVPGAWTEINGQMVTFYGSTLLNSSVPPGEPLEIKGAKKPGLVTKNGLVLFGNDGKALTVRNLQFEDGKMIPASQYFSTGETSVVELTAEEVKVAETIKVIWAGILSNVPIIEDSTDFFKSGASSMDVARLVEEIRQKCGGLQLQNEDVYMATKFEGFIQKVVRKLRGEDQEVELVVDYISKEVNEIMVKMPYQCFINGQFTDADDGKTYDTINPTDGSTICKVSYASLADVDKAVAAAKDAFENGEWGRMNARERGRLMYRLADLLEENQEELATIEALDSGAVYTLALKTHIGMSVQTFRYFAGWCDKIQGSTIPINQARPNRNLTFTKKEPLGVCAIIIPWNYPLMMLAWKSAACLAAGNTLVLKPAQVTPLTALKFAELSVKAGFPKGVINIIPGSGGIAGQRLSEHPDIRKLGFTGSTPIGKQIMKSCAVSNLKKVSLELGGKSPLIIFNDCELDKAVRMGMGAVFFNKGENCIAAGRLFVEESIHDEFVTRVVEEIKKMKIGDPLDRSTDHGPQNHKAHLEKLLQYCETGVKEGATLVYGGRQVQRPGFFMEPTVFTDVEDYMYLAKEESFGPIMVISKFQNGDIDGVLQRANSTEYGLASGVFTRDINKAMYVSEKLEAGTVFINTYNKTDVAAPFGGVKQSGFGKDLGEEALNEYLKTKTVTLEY
UniProt Q9BRR6: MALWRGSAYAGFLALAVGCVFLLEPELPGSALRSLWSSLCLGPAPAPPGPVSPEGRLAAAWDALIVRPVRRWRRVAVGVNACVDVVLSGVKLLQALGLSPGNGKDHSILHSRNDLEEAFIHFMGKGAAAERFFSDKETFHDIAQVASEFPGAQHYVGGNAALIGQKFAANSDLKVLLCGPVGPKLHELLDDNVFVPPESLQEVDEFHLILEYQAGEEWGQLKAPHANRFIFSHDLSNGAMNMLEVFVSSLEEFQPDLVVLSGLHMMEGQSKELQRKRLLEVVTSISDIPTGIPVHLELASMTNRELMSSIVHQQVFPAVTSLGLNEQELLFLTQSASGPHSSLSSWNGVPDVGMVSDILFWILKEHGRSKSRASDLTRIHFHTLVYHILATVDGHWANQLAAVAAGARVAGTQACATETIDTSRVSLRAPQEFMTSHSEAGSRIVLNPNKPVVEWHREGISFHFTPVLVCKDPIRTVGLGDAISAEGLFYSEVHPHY
UniProt P55196: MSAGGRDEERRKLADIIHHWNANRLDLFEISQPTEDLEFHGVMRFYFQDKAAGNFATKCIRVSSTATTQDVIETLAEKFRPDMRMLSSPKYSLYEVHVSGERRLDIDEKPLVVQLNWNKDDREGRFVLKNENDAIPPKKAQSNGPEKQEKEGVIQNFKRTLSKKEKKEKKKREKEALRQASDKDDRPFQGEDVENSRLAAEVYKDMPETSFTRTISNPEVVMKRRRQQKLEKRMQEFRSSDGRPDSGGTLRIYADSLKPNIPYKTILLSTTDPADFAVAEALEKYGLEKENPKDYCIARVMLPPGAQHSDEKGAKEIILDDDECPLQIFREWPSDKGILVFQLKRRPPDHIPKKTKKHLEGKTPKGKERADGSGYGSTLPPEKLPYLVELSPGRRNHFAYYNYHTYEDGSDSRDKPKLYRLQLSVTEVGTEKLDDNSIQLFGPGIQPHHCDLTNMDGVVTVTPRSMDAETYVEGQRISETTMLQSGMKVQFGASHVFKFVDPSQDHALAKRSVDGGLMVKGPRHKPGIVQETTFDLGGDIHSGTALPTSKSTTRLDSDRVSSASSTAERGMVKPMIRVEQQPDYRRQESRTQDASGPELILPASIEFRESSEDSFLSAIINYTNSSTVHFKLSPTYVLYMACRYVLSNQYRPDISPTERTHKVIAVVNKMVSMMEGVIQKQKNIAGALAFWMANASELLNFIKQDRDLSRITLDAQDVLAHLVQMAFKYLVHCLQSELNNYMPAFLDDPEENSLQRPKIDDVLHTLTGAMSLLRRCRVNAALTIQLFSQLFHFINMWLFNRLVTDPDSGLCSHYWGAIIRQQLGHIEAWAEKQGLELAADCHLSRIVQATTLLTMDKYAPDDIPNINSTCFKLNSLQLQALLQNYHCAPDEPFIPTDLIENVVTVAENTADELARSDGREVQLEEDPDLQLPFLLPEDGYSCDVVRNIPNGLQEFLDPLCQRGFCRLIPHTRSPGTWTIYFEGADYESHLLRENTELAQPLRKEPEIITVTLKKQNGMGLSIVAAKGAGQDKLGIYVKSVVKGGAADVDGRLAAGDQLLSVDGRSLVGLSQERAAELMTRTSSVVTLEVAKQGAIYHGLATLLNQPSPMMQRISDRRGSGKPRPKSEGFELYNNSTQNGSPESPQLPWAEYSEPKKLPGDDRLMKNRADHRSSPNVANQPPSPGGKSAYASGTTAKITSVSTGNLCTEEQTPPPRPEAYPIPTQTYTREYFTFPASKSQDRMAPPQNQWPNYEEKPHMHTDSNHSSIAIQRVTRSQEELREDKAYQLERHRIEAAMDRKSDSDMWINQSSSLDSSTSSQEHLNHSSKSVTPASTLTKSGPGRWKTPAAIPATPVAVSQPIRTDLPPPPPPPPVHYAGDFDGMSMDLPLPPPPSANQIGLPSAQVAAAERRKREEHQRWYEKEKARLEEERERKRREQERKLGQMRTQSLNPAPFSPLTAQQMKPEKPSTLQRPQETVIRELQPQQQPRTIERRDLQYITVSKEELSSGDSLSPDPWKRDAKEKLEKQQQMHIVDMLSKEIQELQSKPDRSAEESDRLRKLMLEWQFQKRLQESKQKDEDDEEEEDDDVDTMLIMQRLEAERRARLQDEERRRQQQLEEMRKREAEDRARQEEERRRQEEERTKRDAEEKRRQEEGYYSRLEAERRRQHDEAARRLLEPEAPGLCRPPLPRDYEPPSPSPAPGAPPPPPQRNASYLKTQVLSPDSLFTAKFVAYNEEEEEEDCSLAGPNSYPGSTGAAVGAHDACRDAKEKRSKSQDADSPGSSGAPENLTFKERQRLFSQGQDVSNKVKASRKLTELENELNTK
UniProt Q9BT22: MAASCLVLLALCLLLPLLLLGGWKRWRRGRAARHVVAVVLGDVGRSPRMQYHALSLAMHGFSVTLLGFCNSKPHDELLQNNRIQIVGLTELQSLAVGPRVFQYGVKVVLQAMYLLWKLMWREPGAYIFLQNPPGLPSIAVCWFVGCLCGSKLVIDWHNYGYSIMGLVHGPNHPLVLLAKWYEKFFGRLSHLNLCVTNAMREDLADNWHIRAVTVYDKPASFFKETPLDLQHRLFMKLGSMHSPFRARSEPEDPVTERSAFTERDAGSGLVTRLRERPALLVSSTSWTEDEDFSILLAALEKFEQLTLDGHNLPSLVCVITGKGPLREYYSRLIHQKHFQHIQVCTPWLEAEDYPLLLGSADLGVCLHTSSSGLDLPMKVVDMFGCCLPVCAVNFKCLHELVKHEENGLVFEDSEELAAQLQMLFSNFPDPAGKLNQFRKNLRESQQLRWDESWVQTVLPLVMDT
UniProt Q96SZ5, whole entry, looked up: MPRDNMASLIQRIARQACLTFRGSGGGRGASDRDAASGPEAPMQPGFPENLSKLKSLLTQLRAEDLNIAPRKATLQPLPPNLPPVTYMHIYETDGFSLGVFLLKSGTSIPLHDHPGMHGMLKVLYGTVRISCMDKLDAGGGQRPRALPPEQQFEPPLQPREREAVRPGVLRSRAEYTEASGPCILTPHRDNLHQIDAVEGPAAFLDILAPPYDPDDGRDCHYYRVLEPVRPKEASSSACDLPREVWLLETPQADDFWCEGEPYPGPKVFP
UniProt Q01433: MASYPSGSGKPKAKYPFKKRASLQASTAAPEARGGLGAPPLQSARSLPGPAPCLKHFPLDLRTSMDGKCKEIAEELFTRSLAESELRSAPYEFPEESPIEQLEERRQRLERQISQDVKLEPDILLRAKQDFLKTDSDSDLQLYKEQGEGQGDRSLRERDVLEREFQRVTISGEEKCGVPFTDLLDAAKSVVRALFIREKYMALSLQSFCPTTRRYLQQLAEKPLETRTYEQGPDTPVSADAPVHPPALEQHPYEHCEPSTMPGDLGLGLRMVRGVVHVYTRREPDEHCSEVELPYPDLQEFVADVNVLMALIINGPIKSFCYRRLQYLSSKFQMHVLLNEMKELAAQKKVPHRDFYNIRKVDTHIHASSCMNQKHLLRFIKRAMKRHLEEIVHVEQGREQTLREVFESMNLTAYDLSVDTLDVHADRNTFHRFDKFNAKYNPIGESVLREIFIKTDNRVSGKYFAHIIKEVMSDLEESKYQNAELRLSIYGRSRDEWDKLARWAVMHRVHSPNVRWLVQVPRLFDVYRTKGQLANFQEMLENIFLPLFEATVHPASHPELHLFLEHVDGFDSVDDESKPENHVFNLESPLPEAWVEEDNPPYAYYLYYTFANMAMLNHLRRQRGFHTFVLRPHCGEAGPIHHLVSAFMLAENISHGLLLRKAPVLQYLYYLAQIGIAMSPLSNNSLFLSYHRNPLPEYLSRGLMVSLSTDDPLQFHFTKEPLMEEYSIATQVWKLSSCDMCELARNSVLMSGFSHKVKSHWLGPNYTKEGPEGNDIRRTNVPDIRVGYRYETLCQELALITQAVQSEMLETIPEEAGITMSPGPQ

Columns and labels:
Test in all cases: log2 fold change, soluble protein after heating vs DMSO (PISA); higher = thermal stabilisation; K562 cells, 10 uM, 30 min; active = over 0.2 and 3.5 SD of the protein, either way, in both replicates (recomputed)
IRAK-1-4 Inhibitor I = compound: C1COCCN1CCN2C3=CC=CC=C3N=C2NC(=O)C4=CC(=CC=C4)[N+](=O)[O-] [IRAK-1-4 Inhibitor I]
How it was run: (§1)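 K562 cells at 2×10^6 cells/mL were treated for 30 min with 10 μM compound, and aliquots were heated for 3 min over 48°C-58°C before pooling. Extraction used PBS with 0.5% NP-40 at 4°C, and soluble protein was the supernatant after 21,000xg for 90 min, measured by TMTpro 16plex LC-MS/MS with channel sums equalised. Thermal stability values, relative to control samples and from duplicates, are log2 fold changes.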

ibrutinib = compound: C=CC(=O)N1CCC[C@@H](n2nc(-c3ccc(Oc4ccccc4)cc3)c3c(N)ncnc32)C1 [ibrutinib]
How it was run: as §1

[1] = compound: CC(=O)c1cnc2ccc(-c3cc(Cl)c(O)c(Cl)c3)nc2c1N[C@H]1CC[C@H](CN(C)C)CC1
How it was run: as §1

ralimetinib = compound: CC(C)(C)Cn1c(N)nc2ccc(-c3[nH]c(C(C)(C)C)nc3-c3ccc(F)cc3)nc21 [ralimetinib]
How it was run: as §1

[2] = compound: CC(C)(O)CC(=O)NCCn1ccc2ncnc(Nc3ccc(Oc4cccc(C(F)(F)F)c4)c(Cl)c3)c21
How it was run: as §1

[3] = compound: CC(C)C1=C2N=C(C=C(N2N=C1)NCC3=CC=CC=C3)NCCCCCCN
How it was run: as §1

[4] = compound: CC(C)C[C@@H](C=O)NC(=O)[C@H](CC(C)C)NC(=O)[C@H](CC(C)C)NC(=O)OCc1ccccc1
How it was run: as §1

pinometostat = compound: CC(C)N(C[C@H]1O[C@@H](n2cnc3c(N)ncnc32)[C@H](O)[C@@H]1O)[C@H]1C[C@@H](CCc2nc3cc(C(C)(C)C)ccc3[nH]2)C1 [pinometostat]
How it was run: as §1

[5] = compound: CC1=C(C(CC(=O)N1)C2=CC=C(C=C2)C(F)(F)F)C(=O)NC3=C(C=C4C(=C3)C=NN4)F
How it was run: as §1

[6] = compound: CC1=C(C2=C(C=C1)C(=O)C3=CC=CC=C3N2CCCN)C
How it was run: as §1

Measured: log2 fold change

AGO2 (UniProt Q9UKV8)
inactive: IRAK-1-4 Inhibitor I -0.011 | ibrutinib 0.007 | [1] 0.012 | ralimetinib -0.006 | [2] 0.038 | [3] 0.062 | [4] -0.009 | pinometostat -0.019 | [5] 0.008 | [6] 0.221

AMDHD2 isoform 3 (UniProt Q9Y303)
inactive: IRAK-1-4 Inhibitor I 0.042 | ibrutinib 0.005 | [1] -0.007 | ralimetinib -0.051 | [2] -0.106 | [3] -0.032 | [4] 0.035 | pinometostat -0.029 | [5] -0.016 | [6] 0.088

AGO4 (UniProt Q9HCK5)
inactive: IRAK-1-4 Inhibitor I -0.049 | ibrutinib 0.027 | [1] -0.023 | ralimetinib -0.025 | [2] 0.087 | [3] 0.081 | [4] 0.073 | pinometostat 0.011 | [5] -0.025 | [6] 0.134

ALDOA isoform 2 (UniProt P04075)
inactive: IRAK-1-4 Inhibitor I 0.052 | ibrutinib 0.015 | [1] 0.026 | ralimetinib -0.006 | [2] 0.042 | [3] 0.081 | [4] 0.008 | pinometostat -0.062 | [5] 0.035 | [6] -0.002

ALG13 (UniProt Q9NP73)
inactive: IRAK-1-4 Inhibitor I 0.012 | ibrutinib -0.002 | [1] -0.019 | ralimetinib -0.042 | [2] -0.072 | [3] -0.114 | [4] -0.052 | pinometostat -0.082 | [5] -0.022 | [6] 0.163

AKT1S1 isoform 3 (UniProt Q96B36)
inactive: IRAK-1-4 Inhibitor I 0.054 | ibrutinib -0.011 | [1] 0.129 | ralimetinib -0.012 | [2] 0.048 | [3] 0.028 | [4] -0.006 | pinometostat 0.001 | [5] -0.006 | [6] 0.002

AGFG1 isoform 4 (UniProt P52594)
inactive: IRAK-1-4 Inhibitor I -0.022 | ibrutinib -0.008 | [1] -0.025 | ralimetinib 0.011 | [2] -0.072 | [3] 0.074 | [4] 0.01 | pinometostat -0.096 | [5] -0.037 | [6] 0.021

ADI1 (UniProt Q9BV57)
inactive: IRAK-1-4 Inhibitor I -0.005 | ibrutinib -0.06 | [1] -0.072 | ralimetinib -0.028 | [2] -0.01 | [3] 0.004 | [4] 0.019 | pinometostat 0.083 | [5] -0.045 | [6] -0.021

ALDH16A1 (UniProt Q8IZ83)
inactive: IRAK-1-4 Inhibitor I 0.018 | ibrutinib 0.002 | [1] -0.001 | ralimetinib -0.002 | [2] -0.02 | [3] 0.012 | [4] -0.027 | pinometostat -0.028 | [5] 0.01 | [6] 0.01

Reprinted at random: two entries already listed.
AKT1S1 isoform 3 (UniProt Q96B36)
inactive: IRAK-1-4 Inhibitor I 0.054 | ibrutinib -0.011 | [1] 0.129 | ralimetinib -0.012 | [2] 0.048 | [3] 0.028 | [4] -0.006 | pinometostat 0.001 | [5] -0.006 | [6] 0.002

AGO2 (UniProt Q9UKV8)
inactive: IRAK-1-4 Inhibitor I -0.011 | ibrutinib 0.007 | [1] 0.012 | ralimetinib -0.006 | [2] 0.038 | [3] 0.062 | [4] -0.009 | pinometostat -0.019 | [5] 0.008 | [6] 0.221

(cont.)

ADSS2 (UniProt P30520)
inactive: IRAK-1-4 Inhibitor I 0.006 | ibrutinib -0.008 | [1] -0.059 | ralimetinib -0.038 | [2] 0.001 | [3] 0.044 | [4] 0.001 | pinometostat -0.053 | [5] -0.011 | [6] 0.015

ALDOC (UniProt P09972)
inactive: IRAK-1-4 Inhibitor I 0.015 | ibrutinib 0.039 | [1] 0.003 | ralimetinib -0.055 | [2] -0.008 | [3] 0.087 | [4] 0.036 | pinometostat -0.023 | [5] 0.022 | [6] -0.001

AGK (UniProt Q53H12)
inactive: IRAK-1-4 Inhibitor I 0.057 | ibrutinib 0.029 | [1] 0.012 | ralimetinib -0.035 | [2] -0.072 | [3] -0.12 | [4] 0.004 | pinometostat -0.031 | [5] 0.023 | [6] 0.019

AFTPH isoform 9 (UniProt Q6ULP2)
inactive: IRAK-1-4 Inhibitor I -0.026 | ibrutinib -0.004 | [1] -0.115 | ralimetinib 0.004 | [2] 0.025 | [3] -0.073 | [4] 0.01 | pinometostat 0.082 | [5] -0.049 | [6] -0.023

AKR1B1 (UniProt P15121)
inactive: IRAK-1-4 Inhibitor I 0 | ibrutinib 0.021 | [1] -0.004 | ralimetinib -0.01 | [2] 0.093 | [3] 0.103 | [4] 0.009 | pinometostat 0.104 | [5] 0.006 | [6] -0.006

AGL (UniProt P35573)
inactive: IRAK-1-4 Inhibitor I -0.168 | ibrutinib -0.008 | [1] -0.054 | ralimetinib 0.071 | [2] 0.027 | [3] -0.106 | [4] 0.091 | pinometostat 0.182 | [5] -0.005 | [6] 0.067

ALDH1L2 (UniProt Q3SY69)
inactive: IRAK-1-4 Inhibitor I 0.004 | ibrutinib -0.041 | [1] 0 | ralimetinib 0.058 | [2] -0.158 | [3] -0.098 | [4] 0.049 | pinometostat 0.047 | [5] -0.076 | [6] 0.122

ADSS1 (UniProt Q8N142)
inactive: IRAK-1-4 Inhibitor I 0.035 | ibrutinib 0 | [1] -0.053 | ralimetinib 0.041 | [2] 0.018 | [3] 0.088 | [4] 0.052 | pinometostat -0.043 | [5] 0.017 | [6] -0.076

ADPGK (UniProt Q9BRR6)
inactive: IRAK-1-4 Inhibitor I 0.007 | ibrutinib -0.026 | [1] -0.021 | ralimetinib -0.02 | [2] 0.009 | [3] 0.058 | [4] -0.059 | pinometostat -0.066 | [5] 0.084 | [6] 0.021

AFDN isoform 1 (UniProt P55196)
inactive: IRAK-1-4 Inhibitor I -0.046 | ibrutinib -0.015 | [1] -0.102 | ralimetinib -0.12 | [2] -0.048 | [3] -0.001 | [4] 0.002 | pinometostat -0.072

AHCYL2 (UniProt Q96HN2)
inactive: IRAK-1-4 Inhibitor I 0.008 | ibrutinib -0.028 | [1] 0.165 | ralimetinib -0.085 | [2] 0 | [3] 0.101 | [4] 0.013 | pinometostat -0.013 | [5] -0.013 | [6] -0.014

ADGRE2 (UniProt Q9UHX3)
inactive: IRAK-1-4 Inhibitor I 0.056 | ibrutinib 0.035 | [1] -0.016 | ralimetinib 0.057 | [2] 0.011 | [3] 0.084 | [4] 0.005 | pinometostat 0.011 | [5] 0.033 | [6] 0.071

ALG1 (UniProt Q9BT22)
inactive: IRAK-1-4 Inhibitor I -0.028 | ibrutinib 0.034 | [1] -0.004 | ralimetinib -0.072 | [2] -0.045 | [3] 0.152 | [4] -0.028 | pinometostat -0.021 | [5] 0.015 | [6] 0.153

ALKBH3 (UniProt Q96Q83)
inactive: IRAK-1-4 Inhibitor I 0.122 | ibrutinib 0.065 | [1] -0.018 | ralimetinib -0.053 | [2] 0.085 | [3] 0.029 | [4] 0.048 | pinometostat -0.008 | [5] 0.027 | [6] 0.016

AKR1A1 (UniProt P14550)
inactive: IRAK-1-4 Inhibitor I 0 | ibrutinib -0.037 | [1] -0.028 | ralimetinib -0.004 | [2] -0.05 | [3] 0.018 | [4] 0.011 | pinometostat -0.03 | [5] -0.017 | [6] 0.017

ALG10B (UniProt Q5I7T1)
inactive: IRAK-1-4 Inhibitor I 0.022 | ibrutinib -0.021 | [1] 0.094 | ralimetinib -0.101 | [2] 0.087 | [3] -0.067 | [4] 0.026 | pinometostat 0.043 | [5] 0.19 | [6] 0.058

ADO (UniProt Q96SZ5)
inactive: IRAK-1-4 Inhibitor I 0.002 | ibrutinib -0.007 | [1] -0.045 | ralimetinib 0.028 | [2] -0.013 | [3] 0.014 | [4] 0.011 | pinometostat 0.003 | [5] 0.011 | [6] 0.054

ALDH4A1 (UniProt P30038)
inactive: IRAK-1-4 Inhibitor I 0.038 | ibrutinib 0.022 | [1] -0.009 | ralimetinib 0.014 | [2] -0.064 | [3] -0.081 | [4] 0.011 | pinometostat -0.067 | [5] -0.031 | [6] 0.034

AMPD2 (UniProt Q01433)
inactive: IRAK-1-4 Inhibitor I 0.045 | ibrutinib 0.043 | [1] -0.012 | ralimetinib -0.036 | [2] -0.014 | [3] 0.039 | [4] -0.024 | pinometostat -0.024 | [5] 0.029 | [6] 0.035

ANAPC1 (UniProt Q9H1A4)
inactive: IRAK-1-4 Inhibitor I -0.043 | ibrutinib -0.025 | [1] -0.01 | ralimetinib 0.034 | [2] -0.02 | [3] -0.059 | [4] -0.018 | pinometostat 0.035 | [5] 0.009 | [6] -0.033

ALG8 (UniProt Q9BVK2)
inactive: IRAK-1-4 Inhibitor I 0.025 | ibrutinib -0.012 | [1] 0.015 | ralimetinib -0.018 | [2] -0.004 | [3] -0.111 | [4] -0.1 | pinometostat 0.009 | [5] -0.011 | [6] 0.04
